# Source: paper PMC9135943
# The chains behind the UniProt entries cited, without tags or fusion partners. Where a name states a change or a piece, a line headed by the entry shows the natural chain unless it says otherwise. Residues count along the entry.
# UniProt P63165, residues 1-97: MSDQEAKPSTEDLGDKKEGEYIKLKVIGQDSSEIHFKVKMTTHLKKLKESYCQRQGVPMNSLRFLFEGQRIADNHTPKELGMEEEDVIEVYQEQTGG
# UniProt P08047: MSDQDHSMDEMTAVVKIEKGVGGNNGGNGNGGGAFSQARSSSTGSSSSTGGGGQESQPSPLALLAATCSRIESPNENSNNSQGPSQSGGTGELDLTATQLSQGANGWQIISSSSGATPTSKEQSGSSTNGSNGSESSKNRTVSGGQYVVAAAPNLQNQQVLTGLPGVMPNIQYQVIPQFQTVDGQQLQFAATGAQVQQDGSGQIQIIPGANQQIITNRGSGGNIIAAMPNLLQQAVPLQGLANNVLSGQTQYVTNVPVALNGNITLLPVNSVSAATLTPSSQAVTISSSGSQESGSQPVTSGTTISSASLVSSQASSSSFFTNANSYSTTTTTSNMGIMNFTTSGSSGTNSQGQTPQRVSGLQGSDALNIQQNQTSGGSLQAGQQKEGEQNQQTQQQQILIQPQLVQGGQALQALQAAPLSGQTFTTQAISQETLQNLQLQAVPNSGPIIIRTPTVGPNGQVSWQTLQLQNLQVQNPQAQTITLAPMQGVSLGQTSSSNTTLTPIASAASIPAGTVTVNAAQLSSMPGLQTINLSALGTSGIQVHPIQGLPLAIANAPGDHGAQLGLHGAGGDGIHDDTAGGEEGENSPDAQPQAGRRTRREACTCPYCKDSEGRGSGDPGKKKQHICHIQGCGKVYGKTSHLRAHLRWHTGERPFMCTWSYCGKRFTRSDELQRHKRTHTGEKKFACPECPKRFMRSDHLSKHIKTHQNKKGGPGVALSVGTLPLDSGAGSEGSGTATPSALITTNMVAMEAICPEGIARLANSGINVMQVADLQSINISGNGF
# These are yes or no findings as the source states them, for the method shown. Binding seen in cells or lysates may run through a third protein. Some entries that bind do so weakly or less than the wild type.
# Biological target: SUMO1 (human (endogenous in hTert-BJ1)) (UniProt P63165)
# Experiment: co-IP; lysates of hTert-BJ1 Sp1-/- cells expressing Flag-Sp1 constructs, with or without 200 uM H2O2 for 2 h then fresh media for 24 h, 10 uM MG132; TGN buffer with 20 mM NEM and 4% SDS, SDS removed on spin columns; precipitated with pre-conjugated SUMO1 antibody beads overnight at 4 C; western blot with Flag and Sp1
row,binding,Substance
1,binds,Flag-tagged Sp1 wild-type (from UniProt P08047 1-785)
2,binds,Flag-tagged Sp1-30N^WT (from UniProt P08047 1-182) (domain or fragment)
